This is one part of the list.
compound: COc1ccc(Cn2ccc3cc(C)c(C(=O)NO)cc32)cc1; assay: dose-dependent thermal stabilisation call (2D-TPP, DLPTP, 10% FDR) (binary (1 = stabilised)); higher = stabilised by the compound; details: system: HL-60 intact cells; concentration range 0.04-10 µM
Description: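 2D thermal proteome profiling in intact HL-60 cells treated with BRD-3811 (0, 0.04, 0.29, 2, 10 uM) for 90 min at 37 C, then heated 3 min at one of 12 temperatures (42-63.9 C). Soluble protein was quantified by TMT10 MS. The value is the DLPTP call of the paper: dose-dependent thermal stabilisation over all temperatures at 10% FDR (F-test of a dose-response against a flat model); one experiment, one call per tested protein.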

Amino acid sequences for entries named in this document (tags omitted). A change or cut given only in a name is not applied to a line headed by its entry.
UniProt O15212, whole entry: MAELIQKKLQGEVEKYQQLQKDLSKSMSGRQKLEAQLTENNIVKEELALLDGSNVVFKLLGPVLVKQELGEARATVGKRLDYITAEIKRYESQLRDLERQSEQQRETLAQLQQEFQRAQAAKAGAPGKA
UniProt Q7RTV0, whole entry, looked up: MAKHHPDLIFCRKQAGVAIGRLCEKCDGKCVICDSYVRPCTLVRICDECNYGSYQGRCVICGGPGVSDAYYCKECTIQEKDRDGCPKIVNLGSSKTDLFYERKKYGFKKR
UniProt O96013: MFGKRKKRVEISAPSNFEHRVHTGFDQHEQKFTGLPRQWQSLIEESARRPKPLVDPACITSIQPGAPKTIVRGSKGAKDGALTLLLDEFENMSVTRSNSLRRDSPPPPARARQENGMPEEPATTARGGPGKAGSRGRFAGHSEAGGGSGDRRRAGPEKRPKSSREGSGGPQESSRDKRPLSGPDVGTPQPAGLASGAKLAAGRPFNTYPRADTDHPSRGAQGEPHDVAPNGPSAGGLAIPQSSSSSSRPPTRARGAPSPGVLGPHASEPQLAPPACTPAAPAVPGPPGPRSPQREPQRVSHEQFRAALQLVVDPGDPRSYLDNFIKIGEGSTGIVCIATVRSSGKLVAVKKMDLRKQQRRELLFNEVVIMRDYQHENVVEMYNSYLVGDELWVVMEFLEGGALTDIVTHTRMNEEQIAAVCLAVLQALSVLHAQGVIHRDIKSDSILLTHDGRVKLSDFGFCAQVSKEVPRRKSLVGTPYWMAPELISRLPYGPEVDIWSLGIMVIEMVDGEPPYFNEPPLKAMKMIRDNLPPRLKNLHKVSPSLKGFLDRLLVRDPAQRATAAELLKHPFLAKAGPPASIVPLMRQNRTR
UniProt Q96D31, whole entry, looked up: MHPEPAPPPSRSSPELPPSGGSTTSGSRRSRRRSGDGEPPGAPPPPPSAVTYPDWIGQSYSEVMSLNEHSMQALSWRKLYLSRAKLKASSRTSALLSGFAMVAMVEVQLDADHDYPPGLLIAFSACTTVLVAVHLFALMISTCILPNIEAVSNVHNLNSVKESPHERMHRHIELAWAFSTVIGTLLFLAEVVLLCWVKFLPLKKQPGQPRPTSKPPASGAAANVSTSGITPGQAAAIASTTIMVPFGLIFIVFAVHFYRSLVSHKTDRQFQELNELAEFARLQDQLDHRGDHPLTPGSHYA
UniProt P35080, whole entry: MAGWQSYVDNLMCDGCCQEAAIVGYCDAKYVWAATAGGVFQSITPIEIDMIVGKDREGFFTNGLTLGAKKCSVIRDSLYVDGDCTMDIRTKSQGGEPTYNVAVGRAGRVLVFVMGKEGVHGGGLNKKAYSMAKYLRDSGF
UniProt P46019: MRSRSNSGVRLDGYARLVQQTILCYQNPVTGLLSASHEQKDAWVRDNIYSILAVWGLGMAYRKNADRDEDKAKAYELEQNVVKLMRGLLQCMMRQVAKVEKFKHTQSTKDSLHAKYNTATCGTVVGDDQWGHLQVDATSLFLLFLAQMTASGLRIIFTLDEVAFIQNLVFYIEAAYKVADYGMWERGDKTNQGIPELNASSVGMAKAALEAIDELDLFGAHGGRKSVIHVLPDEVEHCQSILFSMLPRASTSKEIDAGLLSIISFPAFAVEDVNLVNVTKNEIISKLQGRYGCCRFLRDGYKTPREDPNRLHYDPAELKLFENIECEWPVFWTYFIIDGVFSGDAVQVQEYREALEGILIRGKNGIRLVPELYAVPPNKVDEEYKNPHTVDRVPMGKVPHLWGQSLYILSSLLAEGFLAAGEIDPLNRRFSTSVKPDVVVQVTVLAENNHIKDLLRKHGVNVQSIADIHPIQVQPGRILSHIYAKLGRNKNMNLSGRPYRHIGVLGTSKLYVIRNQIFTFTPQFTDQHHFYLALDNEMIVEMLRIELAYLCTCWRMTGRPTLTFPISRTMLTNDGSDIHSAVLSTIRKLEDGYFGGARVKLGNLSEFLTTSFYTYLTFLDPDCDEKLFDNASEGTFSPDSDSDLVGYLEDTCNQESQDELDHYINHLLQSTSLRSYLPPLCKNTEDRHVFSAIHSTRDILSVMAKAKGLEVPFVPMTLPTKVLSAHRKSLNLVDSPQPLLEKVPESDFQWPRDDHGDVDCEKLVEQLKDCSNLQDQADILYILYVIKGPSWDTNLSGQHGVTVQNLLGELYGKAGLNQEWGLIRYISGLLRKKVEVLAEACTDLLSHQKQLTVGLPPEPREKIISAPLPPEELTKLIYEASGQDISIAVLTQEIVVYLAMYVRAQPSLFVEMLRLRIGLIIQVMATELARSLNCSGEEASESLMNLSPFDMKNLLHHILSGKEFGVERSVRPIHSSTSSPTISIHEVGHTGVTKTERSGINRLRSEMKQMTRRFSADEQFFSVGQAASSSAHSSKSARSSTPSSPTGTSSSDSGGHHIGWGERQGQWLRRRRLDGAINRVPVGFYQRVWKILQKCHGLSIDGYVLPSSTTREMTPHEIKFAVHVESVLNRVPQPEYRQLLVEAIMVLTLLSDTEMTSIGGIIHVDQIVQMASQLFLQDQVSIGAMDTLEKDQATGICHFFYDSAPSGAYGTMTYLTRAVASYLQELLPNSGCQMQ
UniProt Q9Y2I7: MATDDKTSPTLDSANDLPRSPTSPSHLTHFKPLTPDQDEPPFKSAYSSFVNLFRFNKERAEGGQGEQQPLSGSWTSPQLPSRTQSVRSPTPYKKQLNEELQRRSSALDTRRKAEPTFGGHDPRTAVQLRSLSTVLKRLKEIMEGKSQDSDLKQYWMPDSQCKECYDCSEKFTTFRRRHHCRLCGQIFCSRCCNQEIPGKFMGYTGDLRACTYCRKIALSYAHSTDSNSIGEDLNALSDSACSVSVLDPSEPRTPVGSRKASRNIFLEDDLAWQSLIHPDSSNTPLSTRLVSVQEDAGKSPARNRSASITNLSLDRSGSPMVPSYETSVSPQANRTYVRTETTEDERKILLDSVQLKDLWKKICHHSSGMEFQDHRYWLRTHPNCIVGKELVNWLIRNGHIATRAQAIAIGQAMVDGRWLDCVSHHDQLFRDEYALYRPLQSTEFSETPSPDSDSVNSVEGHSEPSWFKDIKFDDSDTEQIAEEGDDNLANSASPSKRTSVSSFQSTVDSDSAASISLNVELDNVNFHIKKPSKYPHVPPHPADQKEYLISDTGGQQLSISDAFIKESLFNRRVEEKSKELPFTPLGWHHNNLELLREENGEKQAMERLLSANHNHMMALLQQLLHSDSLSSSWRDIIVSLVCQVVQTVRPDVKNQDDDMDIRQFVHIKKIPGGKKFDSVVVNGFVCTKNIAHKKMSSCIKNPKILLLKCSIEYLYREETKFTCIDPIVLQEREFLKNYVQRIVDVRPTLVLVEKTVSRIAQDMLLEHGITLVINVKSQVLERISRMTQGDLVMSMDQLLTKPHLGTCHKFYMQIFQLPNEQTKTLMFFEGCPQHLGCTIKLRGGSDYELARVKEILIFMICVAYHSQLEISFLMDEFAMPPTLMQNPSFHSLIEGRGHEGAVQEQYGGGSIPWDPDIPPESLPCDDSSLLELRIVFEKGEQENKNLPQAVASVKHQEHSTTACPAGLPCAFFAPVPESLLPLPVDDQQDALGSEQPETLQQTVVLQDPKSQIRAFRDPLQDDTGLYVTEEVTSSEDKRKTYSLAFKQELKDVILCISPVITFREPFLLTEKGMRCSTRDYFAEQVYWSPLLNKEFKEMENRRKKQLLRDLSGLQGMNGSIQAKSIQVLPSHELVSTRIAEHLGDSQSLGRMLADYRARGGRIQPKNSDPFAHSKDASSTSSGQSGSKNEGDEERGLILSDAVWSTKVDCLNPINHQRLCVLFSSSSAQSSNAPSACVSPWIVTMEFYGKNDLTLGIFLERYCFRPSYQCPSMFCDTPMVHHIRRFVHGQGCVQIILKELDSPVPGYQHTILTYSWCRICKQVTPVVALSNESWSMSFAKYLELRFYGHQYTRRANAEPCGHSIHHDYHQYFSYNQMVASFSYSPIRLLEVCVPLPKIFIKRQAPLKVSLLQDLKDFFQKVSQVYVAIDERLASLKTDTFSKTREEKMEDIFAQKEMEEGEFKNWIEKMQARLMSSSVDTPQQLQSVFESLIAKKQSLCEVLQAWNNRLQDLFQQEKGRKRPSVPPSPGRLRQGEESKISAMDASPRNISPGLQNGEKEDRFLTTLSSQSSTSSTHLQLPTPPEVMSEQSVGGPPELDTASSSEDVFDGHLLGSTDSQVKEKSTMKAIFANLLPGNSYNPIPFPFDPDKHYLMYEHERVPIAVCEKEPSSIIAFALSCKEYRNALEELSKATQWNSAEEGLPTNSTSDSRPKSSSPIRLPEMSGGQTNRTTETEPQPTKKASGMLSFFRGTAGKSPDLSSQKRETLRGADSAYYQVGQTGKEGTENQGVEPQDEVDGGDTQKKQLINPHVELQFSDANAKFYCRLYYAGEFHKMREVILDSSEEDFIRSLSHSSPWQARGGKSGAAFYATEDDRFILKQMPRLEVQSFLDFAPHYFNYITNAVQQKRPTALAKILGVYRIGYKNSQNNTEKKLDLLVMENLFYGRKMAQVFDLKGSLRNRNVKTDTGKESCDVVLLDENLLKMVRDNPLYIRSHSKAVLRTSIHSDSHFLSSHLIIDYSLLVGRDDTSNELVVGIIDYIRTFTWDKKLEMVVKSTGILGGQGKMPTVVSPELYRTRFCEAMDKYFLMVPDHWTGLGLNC
UniProt Q14651: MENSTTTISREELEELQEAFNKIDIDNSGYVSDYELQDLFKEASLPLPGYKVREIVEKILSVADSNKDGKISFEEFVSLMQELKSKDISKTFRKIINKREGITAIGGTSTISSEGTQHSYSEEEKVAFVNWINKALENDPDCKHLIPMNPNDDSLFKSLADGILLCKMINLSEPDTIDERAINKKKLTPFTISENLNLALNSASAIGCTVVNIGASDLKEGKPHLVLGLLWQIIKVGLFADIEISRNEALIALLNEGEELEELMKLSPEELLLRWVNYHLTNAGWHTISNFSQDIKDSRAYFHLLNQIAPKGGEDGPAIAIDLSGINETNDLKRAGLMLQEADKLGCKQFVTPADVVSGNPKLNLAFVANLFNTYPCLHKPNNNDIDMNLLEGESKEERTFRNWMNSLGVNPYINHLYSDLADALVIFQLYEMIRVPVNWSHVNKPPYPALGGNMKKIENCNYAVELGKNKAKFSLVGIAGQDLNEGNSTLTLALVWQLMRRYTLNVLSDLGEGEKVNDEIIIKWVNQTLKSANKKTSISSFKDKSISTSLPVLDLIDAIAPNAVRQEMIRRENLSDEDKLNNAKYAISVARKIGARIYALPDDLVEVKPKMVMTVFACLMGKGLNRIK
UniProt O75381, whole entry: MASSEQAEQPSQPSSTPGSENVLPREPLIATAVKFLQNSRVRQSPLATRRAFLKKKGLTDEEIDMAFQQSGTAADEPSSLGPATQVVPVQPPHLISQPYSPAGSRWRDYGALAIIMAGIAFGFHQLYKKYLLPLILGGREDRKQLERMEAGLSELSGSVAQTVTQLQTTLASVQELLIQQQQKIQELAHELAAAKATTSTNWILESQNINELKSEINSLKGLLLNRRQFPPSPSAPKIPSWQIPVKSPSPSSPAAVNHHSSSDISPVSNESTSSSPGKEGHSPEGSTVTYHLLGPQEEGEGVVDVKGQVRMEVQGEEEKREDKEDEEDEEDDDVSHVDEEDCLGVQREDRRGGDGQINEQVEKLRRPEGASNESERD
UniProt P14618, whole entry, looked up: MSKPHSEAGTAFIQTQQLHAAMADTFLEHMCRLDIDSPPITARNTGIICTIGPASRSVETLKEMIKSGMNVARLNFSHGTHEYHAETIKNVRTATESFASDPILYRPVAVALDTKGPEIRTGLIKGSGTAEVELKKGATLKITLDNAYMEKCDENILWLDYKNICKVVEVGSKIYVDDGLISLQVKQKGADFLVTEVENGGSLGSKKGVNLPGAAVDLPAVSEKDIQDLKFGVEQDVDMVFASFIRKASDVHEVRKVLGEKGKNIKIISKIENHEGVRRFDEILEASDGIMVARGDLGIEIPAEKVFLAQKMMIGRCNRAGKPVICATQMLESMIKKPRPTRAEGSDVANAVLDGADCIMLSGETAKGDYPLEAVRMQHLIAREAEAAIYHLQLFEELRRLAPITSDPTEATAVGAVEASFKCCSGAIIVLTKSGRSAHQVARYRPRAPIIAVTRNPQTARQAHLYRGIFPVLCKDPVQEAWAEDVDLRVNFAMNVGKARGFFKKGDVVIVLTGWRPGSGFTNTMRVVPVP
UniProt Q96GD0: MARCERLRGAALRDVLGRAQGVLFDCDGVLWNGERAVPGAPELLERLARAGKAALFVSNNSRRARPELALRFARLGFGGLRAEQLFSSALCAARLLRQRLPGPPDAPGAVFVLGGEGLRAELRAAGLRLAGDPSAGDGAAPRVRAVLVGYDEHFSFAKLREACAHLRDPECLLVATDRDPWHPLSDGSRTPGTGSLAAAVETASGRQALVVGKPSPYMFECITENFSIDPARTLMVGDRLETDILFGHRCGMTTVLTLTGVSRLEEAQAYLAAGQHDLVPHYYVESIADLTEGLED
UniProt Q13526, whole entry: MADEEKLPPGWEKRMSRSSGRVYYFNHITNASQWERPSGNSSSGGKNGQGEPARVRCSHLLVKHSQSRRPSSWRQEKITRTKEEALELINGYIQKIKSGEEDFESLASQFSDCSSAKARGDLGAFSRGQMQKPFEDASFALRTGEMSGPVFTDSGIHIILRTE

Target	dose-dependent thermal stabilisation call
PFDN6 (UniProt O15212)	inactive: 0
PGK2 (UniProt P07205)	inactive: 0
PHF2 (UniProt O75151)	inactive: 0
PIK3C2A (UniProt O00443)	inactive: 0
PHF5A (UniProt Q7RTV0)	inactive: 0
PIK3CG (UniProt P48736)	inactive: 0
PAK4 (UniProt O96013)	inactive: 0
PHB (UniProt P35232)	inactive: 0
PDCD10 (UniProt Q9BUL8)	inactive: 0
PHB2 (UniProt Q99623)	inactive: 0
PARVG (UniProt Q9HBI0)	inactive: 0
PDLIM5 (UniProt Q96HC4)	inactive: 0
ORAI1 (UniProt Q96D31)	inactive: 0
PCM1 (UniProt Q15154)	inactive: 0
PI4K2A (UniProt Q9BTU6)	inactive: 0
OSBPL3 (UniProt Q9H4L5)	inactive: 0
PFN2 (UniProt P35080)	inactive: 0
PCYT2 (UniProt Q99447)	inactive: 0

Target	dose-dependent thermal stabilisation call
PDLIM2 (UniProt Q96JY6)	inactive: 0
PHKA2 (UniProt P46019)	inactive: 0
PIP5K3 (UniProt Q9Y2I7)	inactive: 0
PIGT (UniProt Q969N2)	inactive: 0
PLS1 (UniProt Q14651)	inactive: 0
PARP2 (UniProt Q9UGN5)	inactive: 0
PEX14 (UniProt O75381)	inactive: 0
PIGQ (UniProt Q9BRB3)	inactive: 0
PKMYT1 (UniProt Q99640)	inactive: 0
PIK3CD (UniProt O00329)	inactive: 0
PKM2 (UniProt P14618)	inactive: 0
PICALM (UniProt Q13492)	inactive: 0
PDXP (UniProt Q96GD0)	inactive: 0
PARL (UniProt Q9H300)	inactive: 0
PLA2G4A (UniProt P47712)	inactive: 0
PANX1 (UniProt Q96RD7)	inactive: 0
PABPC1 (UniProt P11940)	inactive: 0
PIN1 (UniProt Q13526)	inactive: 0

Part of the list above, set out differently.

| Target | dose-dependent thermal stabilisation call |
| --- | --- |
| PARP2 (UniProt Q9UGN5) | inactive: 0 |
| PEX14 (UniProt O75381) | inactive: 0 |

Source: the supplement of paper PMC7666118
